Measured values taken from patent US20090069359A1 (priority 2006, published 2009).
For some of these results: At least one compound was matched to its structure with a doubt left. Some results were stated once for a whole list of compounds, not compound by compound.

Experiments:
[1] = test system: hair loss and baldness; parameters: species or system human; conditions: in vivo
[2] = test system: erectile dysfunction; parameters: species or system human; conditions: in vivo

| Structure (SMILES) | hair growth [1] | time to improved erections [2] |
| --- | --- | --- |
| C[C@H]1C[C@H]2[C@@H]3CCC4=CC(=O)C=C[C@]4(C)[C@@]3(F)[C@@H](O)C[C@]2(C)[C@@]1(O)C(=O)CO [betamethasone] | new hair growth began gradually |  |
| CC12CCC(CC1)C(C)(C)O2 [eucalyptol] |  | ≤ 90 days |
| CC1CCC(C(C)C)C(O)C1 (stereo not shown) [menthol] |  | ≤ 90 days |
| Nc1cc(N2CCCCC2)nc(N)[n+]1[O-] [minoxidil] | new hair growth began gradually |  |
